Laboratory results reported in publication PMC4203353.
These are yes or no findings as the source states them, for the method shown. In cells and extracts the contact can be indirect. Some binding calls cover weakened binding; strength is not graded here.

Sequences of proteins named here, by UniProt entry; tags and fusion partners are left off.
UniProt Q80UE6: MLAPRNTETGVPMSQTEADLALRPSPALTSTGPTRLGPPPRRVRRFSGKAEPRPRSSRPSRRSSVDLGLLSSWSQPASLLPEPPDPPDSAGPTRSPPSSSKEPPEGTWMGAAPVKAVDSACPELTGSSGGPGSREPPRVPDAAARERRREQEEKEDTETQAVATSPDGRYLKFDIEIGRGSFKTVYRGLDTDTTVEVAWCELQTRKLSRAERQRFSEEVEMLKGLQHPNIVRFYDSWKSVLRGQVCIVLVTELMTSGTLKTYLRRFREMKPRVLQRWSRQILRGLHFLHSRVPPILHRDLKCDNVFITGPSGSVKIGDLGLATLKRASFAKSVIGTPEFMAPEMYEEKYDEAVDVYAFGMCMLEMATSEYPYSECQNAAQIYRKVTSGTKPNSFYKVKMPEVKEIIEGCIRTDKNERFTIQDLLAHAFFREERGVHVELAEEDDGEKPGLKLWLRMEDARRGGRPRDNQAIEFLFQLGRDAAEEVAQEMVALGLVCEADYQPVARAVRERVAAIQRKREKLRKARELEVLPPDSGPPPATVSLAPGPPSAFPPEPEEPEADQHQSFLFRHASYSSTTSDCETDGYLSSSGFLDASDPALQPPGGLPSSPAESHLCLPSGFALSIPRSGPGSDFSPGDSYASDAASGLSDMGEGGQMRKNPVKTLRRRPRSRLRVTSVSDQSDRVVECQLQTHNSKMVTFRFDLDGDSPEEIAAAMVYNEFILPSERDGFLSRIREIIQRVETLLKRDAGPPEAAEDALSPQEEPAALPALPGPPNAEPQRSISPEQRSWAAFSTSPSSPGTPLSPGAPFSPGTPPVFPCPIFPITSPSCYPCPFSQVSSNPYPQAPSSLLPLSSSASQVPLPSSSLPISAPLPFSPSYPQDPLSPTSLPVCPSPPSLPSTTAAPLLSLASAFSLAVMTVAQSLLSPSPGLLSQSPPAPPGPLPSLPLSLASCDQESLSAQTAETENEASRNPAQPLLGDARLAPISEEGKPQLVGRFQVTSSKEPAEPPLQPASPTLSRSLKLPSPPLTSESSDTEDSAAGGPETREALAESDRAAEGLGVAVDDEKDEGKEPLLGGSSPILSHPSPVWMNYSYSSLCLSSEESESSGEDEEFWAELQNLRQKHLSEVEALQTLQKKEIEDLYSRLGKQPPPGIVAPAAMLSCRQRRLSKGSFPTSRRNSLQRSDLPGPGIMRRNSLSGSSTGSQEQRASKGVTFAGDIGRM

Target: with-no lysine kinase-4 (WNK4) (mouse (endogenous in kidney cortex)) (UniProt Q80UE6)
Experiment: co-IP; kidney cortex homogenate (1 mg protein) of 3-month-old wild-type mice treated for 5 days with vehicle or rFGF23; reciprocal IP with anti-WNK4 or anti-NCC antibody at 4°C overnight, Protein A or G beads, four washes in PBS; Western blot with anti-NCC or anti-WNK4

- binding: binds
B1: Na+:Cl- co-transporter NCC (protein, UniProt P59158 1-1002)
chain: MAELPVTELPGDALCSGRFTISTLMGGDEPPPAACDSSQPSHLTHGSTLYMRTFGYNTIDVVPAYEHYANSALPGEPRKVRPTLADLHSFLKQEGSHLHALAFDGRQGRELTDGLVEDETGTNSEKSPGEPVRFGWVKGVMIRCMLNIWGVILYLRLPWITAQAGIVLTWLIILLSVMVTSITGLSISAISTNGKVKSGGTYFLISRSLGPELGGSIGLIFAFANAVGVAMHTVGFAETVRDLLQEYGTPIVDPINDIRIIGVVTVTVLLAISLAGMEWESKAQVLFFLVIMVSFANYLVGTLIPASEDKASKGFYSYHGDIFVQNLVPDWRGIDGSFFGMFSIFFPSATGILAGANISGDLKDPAVAIPKGTLMAIFWTTISYLAISATIGSCVVRDASGDVNDTMTPGPGPCEGLACGYGWNFTECSQQRSCRYGLINYYQTMSMVSAFAPLITAGIFGATLSSALACLVSAAKVFQCLCEDQLYPLIGFFGKGYGKNREPVRGYLLAYAIAVAFIIIAELNTIAPIISNFFLCSYALINFSCFHASITNSPGWRPSFRYYSKWAALFGAVISVVIMFLLTWWAALIAIGVVLFLLLYVIYKKPEVNWGSSVQAGSYNLALSYSVGLNEVEDHIKNYRPQCLVLTGPPNFRPALVDFVSTFTQNLSLMICGHVLIGPGKQRVPELRLIASGHTKWLNKRKIKAFYSDVIAEDLRSGVQILMQASGLGRMKPNILVVGFKRNWQSAHPATVEDYIGVLHDAFDFNYGVCVMRMREGLNVSEALQTHTTPEALIQEEQASTIFQSEQGKKTIDIYWLFDDGGLTLLIPYLLHRKKRWGKCKIRVFVGGQINRMDEERKAIISLLSKFRLGFHEVHVLPDINQKPQAEHTKRFEDMIAPFRLNDGFKDEATVTEMRRDCPWKISDEEINKNRIKSLRQVRLSEILLDYSRDAALIILTLPIGRKGKCPSSLYMAWLETLSQDLRPPVLLIRGNQENVLTFYCQ
